“Also recorded” adds a separate entry of the source. Some entries repeat one wording, which the source may state once for all of them.
Assay: Odor evaluation (odor description, odor strength)
Conditions: not given

Row | SMILES | Odor (description)
1 | C=C(CO)CCC1CC2CC2(C)C1(C)C (stereo not drawn) [B, 2-methylene-4-(1,2,2-trimethyl-3-bicyclo[3.1.0]hexanyl)butan-1-ol] | sandalwood, woody, creamy
2 | CC1(C)C(CCC2(CO)CC2)CC2CC21C (stereo not drawn) [C, [1-[2-(1,2,2-trimethyl-3-bicyclo[3.1.0]hexanyl)ethyl]cyclopropyl]methanol] | sandalwood, woody, creamy
3 | C=C(CO)CCC1CC=C(C)C1(C)C (stereo not drawn) [Compound A, 2-methylene-4-(2,2,3-trimethylcyclopent-3-en-1-yl)butan-1-ol] | sandalwood, woody
4 | C=C(/C=C(\C)CO)C1CC=C(C)C1(C)C (stereo not drawn) [Compound J, (2E)-2-methyl-4-(2,2,3-trimethylcyclopent-3-en-1-yl)penta-2,4-dien-1-ol] | sandalwood, creamy, woody
5 | C=C(C=C(C)CO)C1CC2CC2(C)C1(C)C (stereo not drawn) [Compound L, 2-methyl-4-(1,2,2-trimethyl-3-bicyclo[3.1.0]hexanyl)penta-2,4-dien-1-ol] | sandalwood, woody, creamy
6 | C=C(/C=C(\CC)CO)C1CC=C(C)C1(C)C (stereo not drawn) [Compound N, 2-ethyl-4-(2,2,3-trimethylcyclopent-3-en-1-yl)penta-2,4-dien-1-ol] | woody, floral and sandalwood or a milky, floral, creamy and sandalwood note
7 | CC1=CCC(C2(/C=C(\C)CO)CC2)C1(C)C (stereo not drawn) [D, 2-methyl-3-[1-(2,2,3-trimethylcyclopent-3-en-1-yl)cyclopropyl]prop-2-en-1-ol] | sandalwood, woody, amber like
8 | CC1=CCC(C2(CC(C)CO)CC2)C1(C)C (stereo not drawn) [E, 2-methyl-3-[1-(2,2,3-trimethylcyclopent-3-en-1-yl)cyclopropyl]propan-1-ol] | sandalwood, woody
9 | CC1=CCC(C2(/C=C/C(C)O)CC2)C1(C)C (stereo not drawn) [F] | creamy, chocolate, natural character of patchouli
10 | CC1=CCC(CCC2(CO)CC2)C1(C)C (stereo not drawn) [G, [1-[2-(2,2,3-trimethylcyclopent-3-en-1-yl)ethyl]cyclopropyl]methanol] | sandalwood, woody, creamy, sweet, soft
11 | C=C(CO)CC(=C)C1CC=C(C)C1(C)C (stereo not drawn) [I, 2-methylene-4-(2,2,3-trimethylcyclopent-3-en-1-yl)pent-4-en-1-ol] | sandalwood, creamy, woody
12 | C=C(/C=C(\C)C1CC=C(C)C1(C)C)CO (stereo not drawn) [K, (E)-2-methylene-4-(2,2,3-trimethylcyclopent-3-en-1-yl)pent-3-en-1-ol] | sandalwood, creamy, woody
13 | CC/C(=C\C(C)C1CC=C(C)C1(C)C)CO (stereo not drawn) [M, 2-ethyl-4-(2,2,3-trimethylcyclopent-3-en-1-yl)pent-2-en-1-ol] | woody, floral, sandalwood; also recorded: woody, floral and sandalwood or a milky, floral, creamy and sandalwood note
14 | C/C=C(/C=C(\C)C1CC=C(C)C1(C)C)CO (stereo not drawn) [O, 2-ethylidene-4-(2,2,3-trimethylcyclopent-3-en-1-yl)pent-3-en-1-ol] | woody, floral and sandalwood or a milky, floral, creamy and sandalwood note

Same assay, conditions: listed as 2-ethylidene-4-(2,2,3-trimethylcyclopent-3-en-1-yl)pent-3-en-1-ol

Row | SMILES | Odor (description)
15 | C/C=C(/C=C(\C)C1CC=C(C)C1(C)C)CO (stereo not drawn) [O, 2-ethylidene-4-(2,2,3-trimethylcyclopent-3-en-1-yl)pent-3-en-1-ol] | milky, floral, creamy, sandalwood

From US12410113B2, “Sandalwood-type fragrance compounds” (SYMRISE AG, priority 2019, dated 2025)
